Measured values reported in the supplement of paper PMC3334620.
In all, about 33,000 sequences were measured (“E-score (-0.5 to 0.5)”: median about -0.016, highest 2% from about 0.3 on). Some of the results follow.

Each sequence was assayed against T1, Yer184c (UniProt P39961) (assay: PBM E-score (8-mer binding enrichment) (E-score (-0.5 to 0.5)); higher = stronger / more preferred TF binding). Details: protein concentration: 100 nM; construct: GST-full length.
T1 sequence: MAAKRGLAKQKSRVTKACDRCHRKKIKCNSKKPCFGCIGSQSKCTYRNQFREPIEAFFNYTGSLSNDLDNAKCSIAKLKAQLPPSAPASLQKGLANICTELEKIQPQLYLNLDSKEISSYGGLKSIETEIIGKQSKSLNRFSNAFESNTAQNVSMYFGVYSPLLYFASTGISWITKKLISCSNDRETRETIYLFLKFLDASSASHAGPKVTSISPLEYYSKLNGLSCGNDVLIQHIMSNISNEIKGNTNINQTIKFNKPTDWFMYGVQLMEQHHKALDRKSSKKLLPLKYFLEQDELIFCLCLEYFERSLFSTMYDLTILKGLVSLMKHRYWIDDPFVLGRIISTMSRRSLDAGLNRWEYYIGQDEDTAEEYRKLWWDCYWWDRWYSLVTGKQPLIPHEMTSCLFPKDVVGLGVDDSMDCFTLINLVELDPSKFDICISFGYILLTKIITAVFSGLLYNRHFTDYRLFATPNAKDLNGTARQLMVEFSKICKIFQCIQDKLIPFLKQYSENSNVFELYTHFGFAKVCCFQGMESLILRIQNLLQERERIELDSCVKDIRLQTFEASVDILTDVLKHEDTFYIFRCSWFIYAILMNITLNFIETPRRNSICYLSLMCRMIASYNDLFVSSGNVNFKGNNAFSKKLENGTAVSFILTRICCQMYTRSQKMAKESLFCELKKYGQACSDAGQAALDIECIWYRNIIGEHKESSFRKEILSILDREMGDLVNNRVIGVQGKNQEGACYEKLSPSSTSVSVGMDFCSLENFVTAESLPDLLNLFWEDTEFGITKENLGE
Outline: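 Detection of bound protein used fluorescent anti-GST, with scans normalised by masliner. The proteins were GST-tagged yeast transcription factors applied at about 100-200 nM to universal all-10-mer Agilent arrays made double-stranded by primer extension. Each ungapped eight-base word, pooled with its reverse complement, was scored with an E-score from the Universal PBM Analysis Suite.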

Compared with TTACGTAA, AGCCCTTC is lower in “PBM E-score” value: -0.071 for the first, -0.24 for the second.

First: CAAGTCTC
Second: CAGCTGCA
The “PBM E-score” value of the first is lower: -0.227 for the first, -0.138 for the second.

Going from TAAAGTGA to ACGGTAAA, the “PBM E-score” value rises from 0.12 to 0.162.

Going from ACTCCAAG to GCGGTCAA, the “PBM E-score” value rises from -0.21 to 0.0846.

Compared with CCGCGGTC, AAGATAAT is higher in “PBM E-score” value: 0.205 for the first, 0.243 for the second.

First: GCCCTAGC
Second: CATATTTA
The “PBM E-score” value of the first is lower: -0.162 for the first, 0.159 for the second.

Compared with TCACGTCA, GTCTAGCA is higher in “PBM E-score” value: -0.0647 for the first, -0.00436 for the second.

Going from TTTGCAAA to AGTGGGGC, the “PBM E-score” value falls from 0.0482 to -0.45.

Going from GAAGTGCA to ACCTGCAG, the “PBM E-score” value falls from -0.0355 to -0.262.

First: AACTGTCA
Second: AGTTGCGA
The “PBM E-score” value of the first is lower: -0.0612 for the first, -0.00944 for the second.

Compared with AGCTAGTC, CATCTCGC is higher in “PBM E-score” value: -0.11 for the first, -0.077 for the second.

First: CCCTCGAG
Second: CCTATGAG
The “PBM E-score” value of the first is lower: -0.237 for the first, -0.206 for the second.

Compared with AAGACGTC, AGATGACG is higher in “PBM E-score” value: -0.141 for the first, -0.11 for the second.

Going from AGAGCGAC to AAAAACGC, the “PBM E-score” value rises from -0.0903 to 0.166.

Going from GAGTTGCC to ACCCTTGA, the “PBM E-score” value falls from 0.11 to -0.0356.

First: ACAGTGTA
Second: ACAATGCG
The “PBM E-score” value of the first is higher: -0.0208 for the first, -0.0482 for the second.

Going from TCGGGTCA to CGCTATAA, the “PBM E-score” value falls from 0.242 to 0.0885.

Compared with AGTTGTTA, ATCCGCCG is higher in “PBM E-score” value: 0.076 for the first, 0.252 for the second.

Going from AAGCGTGT to AGCCAGTG, the “PBM E-score” value falls from -0.217 to -0.218.

Going from AACACTCT to CCCTGCGG, the “PBM E-score” value falls from 0.0717 to -0.102.

Going from ACAATGTC to AAAAGTGG, the “PBM E-score” value rises from 0.0746 to 0.0777.

Compared with CCAAATGC, AGTACTAT is higher in “PBM E-score” value: -0.136 for the first, 0.165 for the second.

Going from ATTACTCA to ACTATGCC, the “PBM E-score” value falls from 0.103 to 0.0643.

Going from CCCGATGA to TATGGCGA, the “PBM E-score” value falls from 0.131 to -0.0993.

Going from ATAGAGAA to CAGTCAAA, the “PBM E-score” value falls from 0.103 to 0.0847.

First: ACAGGCAC
Second: CGTGACTA
The “PBM E-score” value of the first is lower: -0.241 for the first, 0.0856 for the second.

First: CTAATCGA
Second: ACTCTGAA
The “PBM E-score” value of the first is higher: 0.155 for the first, 0.0196 for the second.

Compared with AATACCGA, CTTACAGA is lower in “PBM E-score” value: 0.165 for the first, 0.0561 for the second.

Going from AGCGCAGC to AGATAAGA, the “PBM E-score” value rises from -0.0783 to 0.123.

Going from CAATGCAG to AGGAGCAT, the “PBM E-score” value rises from -0.0658 to -0.0221.

Going from AGTTAACC to CGAGACGC, the “PBM E-score” value falls from -0.0162 to -0.0192.

Going from AATACATT to CGCATAGA, the “PBM E-score” value falls from 0.122 to -0.173.

Compared with AAACGCTT, TCTTAACA is higher in “PBM E-score” value: -0.0758 for the first, 0.0228 for the second.

Compared with CACTTGAA, CCCCCTTA is lower in “PBM E-score” value: -0.0318 for the first, -0.348 for the second.

Compared with AGCTTGAC, GAATCACA is higher in “PBM E-score” value: -0.156 for the first, 0.0701 for the second.

Going from CCCTACTC to AGTGACAC, the “PBM E-score” value falls from -0.00528 to -0.00725.

First: AATCTACA
Second: GGCGTTAC
The “PBM E-score” value of the first is higher: 0.0892 for the first, 0.0296 for the second.

Going from ACCTTAGG to AGATACCG, the “PBM E-score” value rises from -0.241 to 0.162.

Going from ACGTAGGC to CTTACATA, the “PBM E-score” value rises from -0.162 to 0.0227.

Going from CAATCGTC to ACGAAGGG, the “PBM E-score” value falls from -0.14 to -0.264.

Compared with CCGTCACA, TACTTTCA is higher in “PBM E-score” value: -0.148 for the first, 0.0515 for the second.

Going from AAAGCTCT to AACCTATC, the “PBM E-score” value falls from -0.141 to -0.142.

Going from CTTGGCTC to AGCGGAGG, the “PBM E-score” value falls from -0.17 to -0.193.

Going from GACCGATC to ATTGAATG, the “PBM E-score” value rises from 0.0491 to 0.138.

Going from AAGGTCCA to GTGTTGAA, the “PBM E-score” value rises from -0.0653 to -0.0251.

First: AGAAGCCC
Second: CATAGGTC
The “PBM E-score” value of the first is higher: 0.0144 for the first, -0.0636 for the second.

Going from GGGCCCCA to ATCCTGCA, the “PBM E-score” value rises from -0.298 to -0.1.

Going from AGTCCTCA to CAAGTACG, the “PBM E-score” value falls from -0.0656 to -0.168.

Compared with CGCAGACG, CAGACGAG is lower in “PBM E-score” value: 0.0631 for the first, -0.0786 for the second.

Going from CGCTTAAC to CCGTATCG, the “PBM E-score” value falls from -0.001 to -0.183.

First: CCGCGCAG
Second: GGGCCACA
The “PBM E-score” value of the first is higher: 0.0631 for the first, -0.227 for the second.

Compared with ATTCGCGC, CCGTCGTC is lower in “PBM E-score” value: 0.0265 for the first, -0.0939 for the second.

Compared with AGCCGATA, GGTCTGAA is lower in “PBM E-score” value: 0.142 for the first, 0.119 for the second.

Going from CTTGACTC to GCTGTGGA, the “PBM E-score” value rises from -0.197 to -0.0283.

Going from AAATGGCC to ACAGACGG, the “PBM E-score” value rises from -0.183 to -0.11.

Compared with ACTTACGG, ATGAGGCC is lower in “PBM E-score” value: 0.219 for the first, -0.0547 for the second.

Compared with CCCGTGAA, AGGCTTCC is higher in “PBM E-score” value: -0.106 for the first, 0.1 for the second.

Going from GAATCGCC to TTGGTAAA, the “PBM E-score” value rises from -0.0215 to 0.146.

First: CGGATGTA
Second: AGGAGGCA
The “PBM E-score” value of the first is higher: 0.285 for the first, -0.209 for the second.

First: GTAGAAAA
Second: TGATCTAA
The “PBM E-score” value of the first is higher: 0.193 for the first, 0.103 for the second.

Going from AACATCAC to GGAATCGA, the “PBM E-score” value rises from -0.121 to 0.0553.

First: TTACAGAA
Second: GTATCACA
The “PBM E-score” value of the first is lower: -0.00633 for the first, 0.108 for the second.

First: ATACACAC
Second: AGTCGTGG
The “PBM E-score” value of the first is higher: 0.0704 for the first, -0.191 for the second.

Compared with GAACAAAC, CAAAGGGA is lower in “PBM E-score” value: 0.261 for the first, -0.166 for the second.

First: TGCGTTAA
Second: ACGGCGGA
The “PBM E-score” value of the first is lower: 0.0383 for the first, 0.094 for the second.

First: CCGGGCCC
Second: AGTACCAA
The “PBM E-score” value of the first is higher: 0.262 for the first, 0.144 for the second.

Going from AGCACGTC to CACGGTTA, the “PBM E-score” value rises from -0.0289 to 0.218.

Compared with CCATAGAA, CAAATTCC is higher in “PBM E-score” value: 0.0492 for the first, 0.181 for the second.

Compared with AAATGTAT, CAAGCCGA is higher in “PBM E-score” value: 0.169 for the first, 0.324 for the second.

First: GGTCTTCA
Second: AACATTAT
The “PBM E-score” value of the first is lower: -0.157 for the first, 0.177 for the second.

Compared with CAGATGTA, AAGCACAG is higher in “PBM E-score” value: -0.231 for the first, 0.0653 for the second.

Compared with AAAGCAAC, AACAGTCG is lower in “PBM E-score” value: 0.0724 for the first, 0.0243 for the second.

First: GGGGATAA
Second: CCCTTCGC
The “PBM E-score” value of the first is higher: -0.116 for the first, -0.218 for the second.

Compared with ACTCCGGG, TCTAGCCA is lower in “PBM E-score” value: 0.265 for the first, -0.0838 for the second.

First: ACAGTATG
Second: AGTCCACA
The “PBM E-score” value of the first is higher: -0.0597 for the first, -0.103 for the second.

Compared with CACTTCCA, AGCGCCTC is lower in “PBM E-score” value: -0.0121 for the first, -0.0318 for the second.

First: CGGGTTCA
Second: ACCCCACT
The “PBM E-score” value of the first is higher: 0.278 for the first, -0.205 for the second.

Going from CATATAAC to ATCAACGA, the “PBM E-score” value rises from 0.115 to 0.117.

Going from TATAATCA to CAGGACAC, the “PBM E-score” value falls from 0.198 to -0.0491.

Compared with AACAACCG, AAATATAT is higher in “PBM E-score” value: 0.247 for the first, 0.305 for the second.

First: TGCTGACA
Second: CGCAAAAA
The “PBM E-score” value of the first is lower: -0.0689 for the first, 0.225 for the second.

Compared with CAAGAATC, GCCAAGTA is lower in “PBM E-score” value: 0.138 for the first, -0.199 for the second.

Compared with CGCTACTA, ACATTGCG is lower in “PBM E-score” value: 0.0983 for the first, -0.138 for the second.

First: AACACCCA
Second: GCACGAAA
The “PBM E-score” value of the first is lower: -0.199 for the first, 0.0777 for the second.

First: GCGCTGTA
Second: ATTCGTGA
The “PBM E-score” value of the first is lower: -0.115 for the first, -0.0319 for the second.

First: GAGTGCCA
Second: ATAGAGAT
The “PBM E-score” value of the first is lower: -0.298 for the first, 0.0561 for the second.
